# Where a chain is given by its changes, count along the chain named. Results are given in words; binding and its absence hold for the method and conditions named. Binding seen in cells or lysates may run through a third protein. Binding can be weak; no strength is given. Tags and fused reporters may be left off the sequences shown.
# Assays:
# [1] = molecular target: T1, TRIB1-W337A-MYC (human) (UniProt Q96RU8); assay: co-IP; Myc-tagged TRIB1 precipitated (Pierce anti-c-Myc magnetic beads) from total lysates of stable T08-387 cells; eluate blotted for Akt and p-Akt S473
# T1 sequence: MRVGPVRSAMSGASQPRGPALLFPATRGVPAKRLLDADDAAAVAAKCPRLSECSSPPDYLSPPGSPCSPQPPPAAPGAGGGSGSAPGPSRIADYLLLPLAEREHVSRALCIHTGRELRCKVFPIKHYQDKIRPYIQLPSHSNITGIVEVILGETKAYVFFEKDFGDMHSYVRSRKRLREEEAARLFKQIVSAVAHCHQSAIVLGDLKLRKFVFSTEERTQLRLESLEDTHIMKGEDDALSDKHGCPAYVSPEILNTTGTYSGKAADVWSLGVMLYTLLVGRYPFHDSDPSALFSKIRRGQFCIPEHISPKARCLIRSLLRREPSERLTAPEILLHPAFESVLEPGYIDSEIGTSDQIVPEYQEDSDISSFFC
# [2] = molecular target: T2, Myc-tagged TRIB1 (human) (UniProt Q96RU8); assay: as above
# T2 sequence: T1 sequence with A337W
substance,measurement,setting,value
Akt (human (endogenous in T08-387 and HEK293)),binding,[1],binds
same,binding,[2],binds

# Reference: paper PMC10394028
